Reference: patent US20060100143A1
No constants are given. Whether binding was seen depends on the method and setting. In cells and extracts the contact can be indirect. Some entries that bind do so weakly or less than the wild type.

T1: C. elegans p53 (C. elegans), Q20646
T1 chain: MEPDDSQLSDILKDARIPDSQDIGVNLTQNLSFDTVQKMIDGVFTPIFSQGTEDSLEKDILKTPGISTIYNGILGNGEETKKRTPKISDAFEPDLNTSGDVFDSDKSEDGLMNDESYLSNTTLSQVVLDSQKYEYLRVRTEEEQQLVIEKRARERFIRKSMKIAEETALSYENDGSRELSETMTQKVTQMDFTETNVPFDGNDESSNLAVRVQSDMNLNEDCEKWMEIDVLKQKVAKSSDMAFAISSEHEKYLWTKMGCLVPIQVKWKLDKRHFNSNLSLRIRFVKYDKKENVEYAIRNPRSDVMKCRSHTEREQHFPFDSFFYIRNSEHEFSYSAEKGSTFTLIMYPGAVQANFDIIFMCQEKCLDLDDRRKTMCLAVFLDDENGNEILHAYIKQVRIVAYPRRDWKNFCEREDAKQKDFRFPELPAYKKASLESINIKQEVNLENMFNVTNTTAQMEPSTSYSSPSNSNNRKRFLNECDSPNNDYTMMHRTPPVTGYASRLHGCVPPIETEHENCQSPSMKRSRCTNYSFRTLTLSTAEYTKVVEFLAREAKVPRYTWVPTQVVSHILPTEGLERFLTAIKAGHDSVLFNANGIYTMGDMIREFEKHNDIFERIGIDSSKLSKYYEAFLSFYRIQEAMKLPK


Experiments:
human p53 (human) [1] = target: human p53 (human) (UniProt P04637); assay: summary of the co-immunoprecipitation and cell assays
human p53 (human) [2] = target: human p53 (human) (UniProt P04637); assay: co-immunoprecipitation of in vitro translated proteins (FIG. 8B)
[3] = target: T1, C. elegans p53 (C. elegans), Q20646; assay: co-immunoprecipitation of in vitro translated proteins, confirmed by reciprocal immunoprecipitation (FIG. 8B); settings: remark: other sources report otherwise

Binder	binding (human p53 (human) [1])	binding (human p53 (human) [2])	binding [3]
C. elegans iASPP (protein, not shown: small tags and cut ends) MVTTSSGGGIGYPANNGVTQVSLIHSSDSVRTVSTAPIYRPTSSMASTMAHKSSTAPFISANQRMSKPPVRVVAQPPPPHPQALSQQYHQQNPMMMYSAPNTRPHVIPTMQVQPTMAAQIKRNNPVNAQFQNPSEMIADYGVKPQSVEMVQRVRAVRRQVADEETELRRLRELEHETAQLQNKNYGRERELNVQGSMLKEAQLELRNASMRAQSLNKHLEEMYRRRQTAAAAALVEQRKMQQHQILLARAANQVSTQEVIRPRASVEPFQVNNTQQQQPSPQMMKSEEFSEKRDLNGQTGSYDAIDGSGDHQKIPTEPSYLAPCKENQQKYSELSKMASTDPHSNHSSPSTSSQKAPTLITFSPPSFEQKINSSTMTRDSPFVERPTSFGDSLDESRLRSGKTDLVSLRSDSLKATKRRSWAASEGTSMSEAEMIHRLLDEQRRGRSHFIPQLPTSQEEPSAITSETYAEEVVNSESKQVATSSDSTNNLELPTEQMVLGSDTTTEEDASSCSTRSDDGQNLEMEVAIERRTVKGILRRPNEKMNKGRIEFDPLALLLDAALEGELDLVRSSASKLTDVSQANDEGITALHNAICAGHYEIVRFLIENDADVNAQDSDGWTPLHCAASCNNLPMVRQLVEGGGCVLASTLSDMETPVEKCEEDEDGYDGCLKYLSAAHNSTGSINTGKVYAAYGYEAAFEDELSFDAGDELTVIEKDKVDKNWWTCEKNNGEKGQVPRTYLALYPSLKYRKKLNFVMFDLPLESNNNVE	binds	binds	
C. elegans iASPP, Q9XVN3 1-769 (protein, not shown: small tags and cut ends) MVTTSSGGGIGYPANNGVTQVSLIHSSDSVRTVSTAPIYRPTSSMASTMAHKSSTAPFISANQRMSKPPVRVVAQPPPPHPQALSQQYHQQNPMMMYSAPNTRPHVIPTMQVQPTMAAQIKRNNPVNAQFQNPSEMIADYGVKPQSVEMVQRVRAVRRQVADEETELRRLRELEHETAQLQNKNYGRERELNVQGSMLKEAQLELRNASMRAQSLNKHLEEMYRRRQTAAAAALVEQRKMQQHQILLARAANQVSTQEVIRPRASVEPFQVNNTQQQQPSPQMMKSEEFSEKRDLNGQTGSYDAIDGSGDHQKIPTEPSYLAPCKENQQKYSELSKMASTDPHSNHSSPSTSSQKAPTLITFSPPSFEQKINSSTMTRDSPFVERPTSFGDSLDESRLRSGKTDLVSLRSDSLKATKRRSWAASEGTSMSEAEMIHRLLDEQRRGRSHFIPQLPTSQEEPSAITSETYAEEVVNSESKQVATSSDSTNNLELPTEQMVLGSDTTTEEDASSCSTRSDDGQNLEMEVAIERRTVKGILRRPNEKMNKGRIEFDPLALLLDAALEGELDLVRSSASKLTDVSQANDEGITALHNAICAGHYEIVRFLIENDADVNAQDSDGWTPLHCAASCNNLPMVRQLVEGGGCVLASTLSDMETPVEKCEEDEDGYDGCLKYLSAAHNSTGSINTGKVYAAYGYEAAFEDELSFDAGDELTVIEKDKVDKNWWTCEKNNGEKGQVPRTYLALYPSLKYRKKLNFVMFDLPLESNNNVE			binds
